Measurements published in the supplement of paper PMC10849652.
The other results are listed elsewhere or left out.

The chains behind the UniProt entries cited, without tags or fusion partners. Where a name states a change or a piece, a line headed by the entry shows the natural chain unless it says otherwise.
UniProt Q96BR5: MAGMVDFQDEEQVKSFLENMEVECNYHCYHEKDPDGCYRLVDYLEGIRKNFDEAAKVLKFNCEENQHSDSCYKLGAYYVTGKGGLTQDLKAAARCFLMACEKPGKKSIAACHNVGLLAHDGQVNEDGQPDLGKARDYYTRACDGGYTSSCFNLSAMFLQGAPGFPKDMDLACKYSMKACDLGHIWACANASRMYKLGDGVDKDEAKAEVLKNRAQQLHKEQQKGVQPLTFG
UniProt Q8WTW3: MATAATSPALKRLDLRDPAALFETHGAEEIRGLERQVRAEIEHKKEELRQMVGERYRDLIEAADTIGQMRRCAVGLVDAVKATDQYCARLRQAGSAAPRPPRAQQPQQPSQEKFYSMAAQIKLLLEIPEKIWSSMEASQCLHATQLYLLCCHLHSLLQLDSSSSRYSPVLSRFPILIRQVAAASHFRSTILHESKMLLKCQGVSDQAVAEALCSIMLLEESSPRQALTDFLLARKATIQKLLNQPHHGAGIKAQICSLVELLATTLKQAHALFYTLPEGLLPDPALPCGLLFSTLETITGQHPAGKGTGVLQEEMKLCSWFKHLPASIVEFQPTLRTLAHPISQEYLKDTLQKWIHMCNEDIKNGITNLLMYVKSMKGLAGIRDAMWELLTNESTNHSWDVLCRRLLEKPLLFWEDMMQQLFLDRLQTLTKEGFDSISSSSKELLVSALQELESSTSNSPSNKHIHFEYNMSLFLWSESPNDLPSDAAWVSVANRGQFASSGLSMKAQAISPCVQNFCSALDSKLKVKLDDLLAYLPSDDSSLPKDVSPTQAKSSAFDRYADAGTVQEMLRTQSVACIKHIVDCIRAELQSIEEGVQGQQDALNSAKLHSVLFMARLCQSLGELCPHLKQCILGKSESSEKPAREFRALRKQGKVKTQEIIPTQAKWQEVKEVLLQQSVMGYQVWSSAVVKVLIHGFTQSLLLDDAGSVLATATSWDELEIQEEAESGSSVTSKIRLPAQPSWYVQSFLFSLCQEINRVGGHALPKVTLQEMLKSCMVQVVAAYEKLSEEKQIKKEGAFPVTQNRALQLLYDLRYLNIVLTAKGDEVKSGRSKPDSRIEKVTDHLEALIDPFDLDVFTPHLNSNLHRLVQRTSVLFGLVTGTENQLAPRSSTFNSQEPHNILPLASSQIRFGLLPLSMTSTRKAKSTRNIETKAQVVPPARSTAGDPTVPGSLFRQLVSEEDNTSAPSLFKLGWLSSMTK
UniProt P39060, whole entry, looked up: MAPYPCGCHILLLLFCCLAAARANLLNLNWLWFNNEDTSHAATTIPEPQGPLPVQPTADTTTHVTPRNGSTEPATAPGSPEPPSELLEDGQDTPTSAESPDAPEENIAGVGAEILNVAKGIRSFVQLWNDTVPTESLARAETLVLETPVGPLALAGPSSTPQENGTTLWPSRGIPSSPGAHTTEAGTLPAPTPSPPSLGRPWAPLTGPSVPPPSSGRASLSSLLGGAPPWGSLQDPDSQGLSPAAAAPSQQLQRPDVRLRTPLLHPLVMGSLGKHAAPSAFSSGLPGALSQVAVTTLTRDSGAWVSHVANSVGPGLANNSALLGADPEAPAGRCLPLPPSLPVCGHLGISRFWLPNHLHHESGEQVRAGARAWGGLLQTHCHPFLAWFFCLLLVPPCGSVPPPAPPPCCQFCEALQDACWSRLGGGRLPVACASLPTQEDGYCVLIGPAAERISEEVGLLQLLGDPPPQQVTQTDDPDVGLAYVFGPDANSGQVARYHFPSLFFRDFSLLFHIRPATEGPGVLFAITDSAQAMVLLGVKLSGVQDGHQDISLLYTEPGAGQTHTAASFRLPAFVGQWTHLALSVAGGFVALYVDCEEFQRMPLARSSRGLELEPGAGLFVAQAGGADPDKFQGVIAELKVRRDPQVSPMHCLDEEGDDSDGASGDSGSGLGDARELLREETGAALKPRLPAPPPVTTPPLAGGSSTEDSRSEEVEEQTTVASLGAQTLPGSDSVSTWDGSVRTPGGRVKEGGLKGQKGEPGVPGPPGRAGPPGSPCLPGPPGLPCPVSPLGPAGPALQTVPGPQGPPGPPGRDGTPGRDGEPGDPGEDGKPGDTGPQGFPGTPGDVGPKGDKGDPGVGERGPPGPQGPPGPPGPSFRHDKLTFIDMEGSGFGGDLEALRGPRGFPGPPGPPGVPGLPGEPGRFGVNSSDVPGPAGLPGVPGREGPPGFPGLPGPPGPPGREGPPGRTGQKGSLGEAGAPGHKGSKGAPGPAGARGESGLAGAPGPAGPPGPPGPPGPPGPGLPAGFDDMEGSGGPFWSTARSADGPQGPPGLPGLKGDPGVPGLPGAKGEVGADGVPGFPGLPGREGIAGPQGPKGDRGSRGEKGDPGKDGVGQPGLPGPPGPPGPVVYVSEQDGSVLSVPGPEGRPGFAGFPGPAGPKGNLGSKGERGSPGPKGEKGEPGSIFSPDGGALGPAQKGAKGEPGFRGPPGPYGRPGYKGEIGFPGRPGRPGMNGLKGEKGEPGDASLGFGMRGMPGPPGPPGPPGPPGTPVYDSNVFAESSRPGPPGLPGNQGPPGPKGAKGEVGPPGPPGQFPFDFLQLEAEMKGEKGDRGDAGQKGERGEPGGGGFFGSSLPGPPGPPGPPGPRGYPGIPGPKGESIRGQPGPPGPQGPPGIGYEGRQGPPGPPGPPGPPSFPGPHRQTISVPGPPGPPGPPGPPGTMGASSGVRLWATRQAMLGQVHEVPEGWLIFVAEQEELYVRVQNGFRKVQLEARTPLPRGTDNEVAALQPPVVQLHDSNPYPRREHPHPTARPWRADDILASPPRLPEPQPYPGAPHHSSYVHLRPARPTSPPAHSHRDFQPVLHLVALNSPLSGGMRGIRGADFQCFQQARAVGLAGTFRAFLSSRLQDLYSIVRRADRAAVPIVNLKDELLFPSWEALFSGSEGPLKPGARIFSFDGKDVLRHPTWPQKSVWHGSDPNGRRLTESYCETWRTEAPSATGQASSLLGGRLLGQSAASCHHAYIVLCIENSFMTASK
UniProt Q9H0A8, whole entry, looked up: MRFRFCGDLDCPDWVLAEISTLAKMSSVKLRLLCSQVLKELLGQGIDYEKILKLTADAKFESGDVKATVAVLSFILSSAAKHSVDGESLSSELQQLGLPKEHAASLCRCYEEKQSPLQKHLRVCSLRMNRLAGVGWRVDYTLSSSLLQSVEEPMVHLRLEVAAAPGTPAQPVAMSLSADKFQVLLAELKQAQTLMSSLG
UniProt P38432, whole entry, looked up: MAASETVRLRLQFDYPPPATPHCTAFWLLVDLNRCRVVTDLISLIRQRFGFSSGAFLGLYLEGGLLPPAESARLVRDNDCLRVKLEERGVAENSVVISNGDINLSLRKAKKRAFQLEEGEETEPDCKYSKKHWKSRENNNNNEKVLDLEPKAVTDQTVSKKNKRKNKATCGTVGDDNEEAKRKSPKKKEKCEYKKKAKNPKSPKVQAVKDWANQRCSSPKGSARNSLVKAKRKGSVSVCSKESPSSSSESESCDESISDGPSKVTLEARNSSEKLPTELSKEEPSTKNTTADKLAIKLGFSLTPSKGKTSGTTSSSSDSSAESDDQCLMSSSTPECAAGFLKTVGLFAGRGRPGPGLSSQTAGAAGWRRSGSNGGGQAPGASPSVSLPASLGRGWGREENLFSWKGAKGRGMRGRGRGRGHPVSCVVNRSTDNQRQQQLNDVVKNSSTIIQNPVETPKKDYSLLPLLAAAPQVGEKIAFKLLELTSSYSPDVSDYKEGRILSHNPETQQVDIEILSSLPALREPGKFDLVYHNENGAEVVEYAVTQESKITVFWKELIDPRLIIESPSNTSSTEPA
UniProt Q8NI60: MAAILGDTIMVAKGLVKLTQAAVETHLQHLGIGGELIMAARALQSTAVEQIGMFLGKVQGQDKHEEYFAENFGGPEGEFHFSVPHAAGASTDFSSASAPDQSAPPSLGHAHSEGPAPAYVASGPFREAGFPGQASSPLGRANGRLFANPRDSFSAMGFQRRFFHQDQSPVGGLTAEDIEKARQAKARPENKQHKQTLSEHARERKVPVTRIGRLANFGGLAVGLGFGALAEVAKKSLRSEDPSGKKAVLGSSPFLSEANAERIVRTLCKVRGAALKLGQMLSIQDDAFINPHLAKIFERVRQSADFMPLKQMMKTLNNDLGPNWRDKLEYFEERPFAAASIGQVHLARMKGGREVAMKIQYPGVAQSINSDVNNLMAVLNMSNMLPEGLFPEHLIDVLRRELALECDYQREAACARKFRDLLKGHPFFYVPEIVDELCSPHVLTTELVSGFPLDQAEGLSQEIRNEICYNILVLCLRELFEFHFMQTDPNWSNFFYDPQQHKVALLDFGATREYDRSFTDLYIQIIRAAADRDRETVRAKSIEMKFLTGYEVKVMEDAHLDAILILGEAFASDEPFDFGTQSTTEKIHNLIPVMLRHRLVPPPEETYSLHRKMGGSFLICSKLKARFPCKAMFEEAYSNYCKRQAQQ
UniProt Q9UBI1, whole entry, looked up: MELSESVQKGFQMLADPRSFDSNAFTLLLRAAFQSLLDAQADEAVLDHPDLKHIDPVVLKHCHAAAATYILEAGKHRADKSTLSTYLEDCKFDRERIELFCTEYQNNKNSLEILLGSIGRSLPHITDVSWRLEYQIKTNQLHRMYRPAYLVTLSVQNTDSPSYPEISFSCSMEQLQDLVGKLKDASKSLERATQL

How the values were obtained:
Test in all cases: log2 fold change, soluble protein after heating vs DMSO (PISA); higher = thermal stabilisation; K562 lysate, 10 uM; active = over 0.2 and 3.5 SD of the protein, either way, in both replicates (recomputed)
[1] = compound: CN1CC[C@H](c2c(O)cc(O)c3c(=O)cc(-c4ccccc4Cl)oc23)[C@H](O)C1 [alvocidib]
Outline: (§1)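 A 30 min treatment with 10 μM compound was applied to crude K562 extract at 1 mg/mL protein in PBS pH 7.4 with 1 mM MgCl2. Heating for 3 min spanned 48°C-58°C, after which aliquots were pooled, adjusted to 0.5% NP-40 at 4°C and spun at 21,000xg for 90 min. TMTpro 16plex LC-MS/MS of the supernatant, with channel sums equalised, gave values recorded as log-two fold change in thermal stability against solvent controls, from duplicates.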

[2] = compound: CN1CCc2c(c3ccccc3n2Cc2ccc(C(=O)NO)cc2)C1 [Tubastatin A]
Outline: as §1

[3] = compound: CNC(=O)C1=CC=CC=C1NC2=NC(=NC=C2Cl)NC3=C(C=C(C=C3)N4CCOCC4)OC
Outline: as §1

[4] = compound: CNC(=O)c1ccc(Nc2ncc(C(F)(F)F)c(NCc3nccnc3N(C)S(C)(=O)=O)n2)cc1 [defactinib]
Outline: as §1

[5] = compound: CNc1nc(-c2ccc3c(N)n[nH]c3c2)cc(N2C[C@@H](C(=O)NC3CCCCC3)CC[C@H]2C)n1
Outline: as §1

[6] = compound: COC(=O)N[C@@H](C)CNc1nccc(-c2cn(C(C)C)nc2-c2cc(Cl)cc(NS(C)(=O)=O)c2F)n1 [encorafenib]
Outline: as §1

[7] = compound: COC(=O)[C@H](CCSC)NC(=O)C1=C(C=C(C=C1)NC[C@H](CS)N)C2=CC=CC=C2
Outline: as §1

[8] = compound: COc1cc(Nc2ncc3c(n2)-c2ccc(Cl)cc2C(c2c(F)cccc2OC)=NC3)ccc1C(=O)O [alisertib]
Outline: as §1

[9] = compound: COc1cc2nc(-c3cc(F)ccc3O)nc(N[C@@H]3CNC[C@H]3C(C)(C)O)c2cc1OC
Outline: as §1

[10] = compound: COc1cc2ncnc(Nc3ccc(F)c(Cl)c3)c2cc1OCCCN1CCOCC1 [gefitinib]
Outline: as §1

[11] = compound: CS(=O)(=O)CCNCc1ccc(-c2ccc3ncnc(Nc4ccc(OCc5cccc(F)c5)c(Cl)c4)c3c2)o1 [lapatinib]
Outline: as §1

[12] = compound: CS(=O)(=O)N1CCN(Cc2cc3nc(-c4cccc5[nH]ncc45)nc(N4CCOCC4)c3s2)CC1 [pictilisib]
Outline: as §1

[13] = compound: C[C@@H](Oc1cc(-c2cnn(C3CCNCC3)c2)cnc1N)c1c(Cl)ccc(F)c1Cl [crizotinib]
Outline: as §1

[14] = compound: C[C@H](C1=CC=C(C=C1)C(=O)NC2=C3C=CNC3=NC=C2)N
Outline: as §1

[15] = compound: C[C@H](Nc1ncnc2nc[nH]c12)c1cc2cccc(Cl)c2c(=O)n1-c1ccccc1 [duvelisib]
Outline: as §1

[16] = compound: Cc1cc(Nc2cc(CN3CCOCC3)c3nc(C)c(Cc4ccc(Cl)cc4F)n3n2)n[nH]1 [gandotinib]
Outline: as §1

[17] = compound: Cc1cc(Nc2cc(N3CCN(C)CC3)nc(Sc3ccc(NC(=O)C4CC4)cc3)n2)n[nH]1 [tozasertib]
Outline: as §1

[18] = compound: Cc1ccc(-n2nc(C(C)(C)C)cc2NC(=O)Nc2ccc(OCCN3CCOCC3)c3ccccc23)cc1 [doramapimod]
Outline: as §1

[19] = compound: Cc1ccc(NC(=O)c2ccc(CN3CC[C@H](N(C)C)C3)c(C(F)(F)F)c2)cc1Nc1nccc(-c2cncnc2)n1 [bafetinib]
Outline: as §1

[20] = compound: Cc1cccc(CC(=O)N2CCc3c2ccc(-c2cn(C)c4ncnc(N)c24)c3F)n1
Outline: as §1

Measured: log2 fold change

COA7 (UniProt Q96BR5)
inactive: [1] -0.019 | [2] 0.008 | [3] 0.008 | [4] -0.025 | [5] -0.036 | [6] -0.021 | [7] -0.114 | [8] -0.022 | [9] -0.055 | [10] 0.02 | [11] 0.065 | [12] -0.037 | [13] 0.082 | [14] -0.087 | [15] 0.028 | [16] 0.053 | [17] 0.021 | [18] -0.041 | [19] 0.01 | [20] 0.013

CNOT1 (UniProt A5YKK6)
inactive: [1] 0.007 | [2] -0.06 | [3] 0.006 | [4] 0 | [5] -0.034 | [6] -0.005 | [7] 0.038 | [8] 0 | [9] 0.016 | [10] -0.004 | [11] -0.013 | [12] -0.011 | [13] -0.01 | [14] -0.04 | [15] -0.002 | [16] -0.045 | [17] -0.021 | [18] 0.013 | [19] -0.029 | [20] 0.05

COG1 (UniProt Q8WTW3)
inactive: [1] 0.014 | [2] -0.107 | [3] 0.026 | [4] 0.037 | [5] 0.017 | [6] -0.015 | [7] 0.038 | [8] -0.013 | [9] -0.027 | [10] 0.049 | [11] 0.005 | [12] -0.003 | [13] -0.079 | [14] -0.033 | [15] 0.013 | [16] -0.183 | [17] 0.012 | [18] 0.033 | [19] -0.064 | [20] 0.013

2 consecutive records from above:
CNOT1 (UniProt A5YKK6)
inactive: [1] 0.007 | [2] -0.06 | [3] 0.006 | [4] 0 | [5] -0.034 | [6] -0.005 | [7] 0.038 | [8] 0 | [9] 0.016 | [10] -0.004 | [11] -0.013 | [12] -0.011 | [13] -0.01 | [14] -0.04 | [15] -0.002 | [16] -0.045 | [17] -0.021 | [18] 0.013 | [19] -0.029 | [20] 0.05

COG1 (UniProt Q8WTW3)
inactive: [1] 0.014 | [2] -0.107 | [3] 0.026 | [4] 0.037 | [5] 0.017 | [6] -0.015 | [7] 0.038 | [8] -0.013 | [9] -0.027 | [10] 0.049 | [11] 0.005 | [12] -0.003 | [13] -0.079 | [14] -0.033 | [15] 0.013 | [16] -0.183 | [17] 0.012 | [18] 0.033 | [19] -0.064 | [20] 0.013

Next results follow.

COL18A1 (UniProt P39060)
inactive: [1] 0.04 | [2] -0.04 | [3] -0.016 | [4] 0.28 | [5] 0.017 | [6] 0.008 | [7] 0.127 | [8] -0.045 | [9] 0.052 | [10] 0.049 | [11] -0.017 | [12] -0.046 | [13] 0.054 | [14] -0.007 | [15] -0.012 | [16] -0.032 | [17] -0.06 | [18] 0.04 | [19] -0.016 | [20] -0.017

COMMD4 (UniProt Q9H0A8)
inactive: [1] -0.017 | [2] -0.131 | [3] 0.021 | [4] -0.017 | [5] -0.022 | [6] 0.026 | [7] -0.162 | [8] -0.06 | [9] 0.005 | [10] -0.018 | [11] 0.004 | [12] -0.013 | [13] 0.008 | [14] -0.064 | [15] 0.047 | [16] -0.012 | [17] -0.059 | [18] 0.028 | [19] 0.032 | [20] -0.003

COIL (UniProt P38432)
inactive: [1] 0.058 | [2] -0.021 | [3] 0.056 | [4] -0.016 | [5] -0.013 | [6] 0.064 | [7] 0.003 | [8] 0.043 | [9] -0.041 | [10] -0.011 | [11] 0.006 | [12] -0.006 | [13] -0.022 | [14] 0.076 | [15] -0.05 | [16] -0.037 | [17] 0.012 | [18] 0.029 | [19] -0.018 | [20] -0.079

COQ8A (UniProt Q8NI60)
inactive: [1] 0.051 | [2] -0.06 | [3] 0.384 | [4] 0 | [5] 0.079 | [6] 0.145 | [7] -0.009 | [8] -0.023 | [9] 0.009 | [10] 0.447 | [11] 0.004 | [12] 0.025 | [13] 0.106 | [14] -0.078 | [15] -0.095 | [16] 0.126 | [17] 0.023 | [18] -0.059 | [19] 0.041 | [20] -0.042

COMMD3 (UniProt Q9UBI1)
inactive: [1] 0.08 | [2] 0.013 | [3] 0.051 | [4] 0.121 | [5] 0.046 | [6] 0.064 | [7] -0.073 | [8] 0.046 | [9] -0.003 | [10] -0.098 | [11] 0.046 | [12] 0.04 | [13] -0.006 | [14] 0.032 | [15] -0.055 | [16] -0.09 | [17] 0.017 | [18] 0.011 | [19] -0.055 | [20] -0.002
